Test results taken from PubChem BioAssay AID1794845 (National Center for Advancing Translational Sciences (NCATS), 2023).
Among all 6,900 compounds or so, fewer than 10 were called active. Calls follow the shape of the dose curve; as a rule, active = well fitted curve in the direction sought with a large enough effect; inconclusive = small, poorly fitted or top-dose-only effect, or another doubt; inactive = no such curve, though single readings can be large or run the other way. The list shows a part of the results.

Protein sequences, listed by entry. Tags and fused reporters are not part of them. Lines headed by an entry give the natural chain unless they say otherwise; changes in a name come on top.
UniProt C7C422: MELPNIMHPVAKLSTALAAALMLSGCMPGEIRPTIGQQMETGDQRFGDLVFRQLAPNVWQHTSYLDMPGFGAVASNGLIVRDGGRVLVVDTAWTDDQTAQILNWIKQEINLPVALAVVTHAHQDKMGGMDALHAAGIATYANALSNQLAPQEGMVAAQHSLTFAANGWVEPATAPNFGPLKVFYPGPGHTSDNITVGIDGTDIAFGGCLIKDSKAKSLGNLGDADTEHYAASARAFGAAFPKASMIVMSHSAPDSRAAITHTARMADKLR

Biological target: Metallo-beta-lactamase type 2 (Klebsiella pneumoniae) (UniProt C7C422)
Assay: qHTS to identify inhibitors of the New Delhi Metallo-beta-lactamase (NDM): primary screen against the NCATS Gemini Collection; also: % of control where 0% means no effect
Settings: NDM-1 enzyme, meropenem hydrolysis, absorbance 300 nm; at 38.4 µM (top of the series) unless noted
Description: Assay Submitter (PI): James Inglese Ph.D., Patricia Dranchak Ph.D., Mahesh Aitha Ph.D. Assay Development and Screening Technology Laboratory (ADST) National Center for Advancing Translational Sciences (NCATS), Rockville, MD National Institute of Health (NIH), Bethesda, Maryland The metallo-beta-lactamases (MBL) are a main antibiotic resistance mechanism evolved by bacteria. There is an urgent clinical need for MBL inhibitors to mitigate this growing threat. To support a machine-based learning study, qHTS has been used to experimentally test inhibitors identified by prediction tools.
PROTOCOL TABLE (as described by Inglese et al., 2007) SEQUENCE No. (e.g., 1, 2, 3, etc.); […] (e.g., enzyme, Incubation, Reagent, etc.); VALUE; DESCRIPTION 1; NDM-1; 4 uL of 3 nM enzyme [2 nM final] in 50 mM HEPES (pH 7.0), 1 uM […], 0.01% Tween20; Use BioRaptr to dispense into Aurora black, clear bottom low base 1536-well plates 2; Compounds; 23 nL; Use Pin Tool (Wako) to transfer DMSO control and library compounds in DMSO 3; Incubate; >30 min 4; Reagent; 2 uL of 150 uM meropenem [50 uM final] 5; Incubate; 30 min. 6; Detector; Absorbance at 300 nm (bandwidth = 5 nm, 25 flashes/well) on Tecan Infinity NOTES (numbers refer to sequence above) 1; Column 1 of each plate received assay buffer without enzyme and columns 2-48 received enzyme for a final assay concentration of 2 nM. 2; Control plate contained DMSO in columns 1, 2, 3, and 4. 3; Compound interaction with enzyme. 4; Meropenem substrate was prepared in the same assay buffer as step 1 for a final assay concentration of 50 uM and added to all wells across the assay plates. 5; Substrate interaction with enzyme, plateau phase of kinetics. 6; Default reader settings were applied for absorbance read at 300 nm, bandwidth = 5 nm, 25 flashes/well. References: Inglese J, Shamu CE, Guy RK. 2007. Reporting data from high-throughput screening of small-molecule libraries. Nat Chem Biol. doi:10.1038/nchembio0807-438 Yasgar A, Shinn P, Jadhav A, Auld D, Michael S, Zheng W, Austin CP, Inglese J, Simeonov A. 2008. Compound Management for Quantitative High-Throughput Screening. J Lab Autom 13:79 - 89. doi:10.1016/j.jala.2007.12.004

Activity % (negative = inhibition), inactive:
O=C(NCCc1csc(-c2cnccn2)n1)C1CC2(CCNCC2)CN1 (configuration not stated) 35.4%
CC(=O)N1CCC2(CC1)CC(c1cccc(C(F)(F)F)c1)=NO2 -5.33% [at 57.5 µM]
CN1CCc2[nH]cnc2C12CCN(C(=O)Cc1ccc(F)cc1Cl)CC2 -2.31%
COC[C@@H]1CN(C(=O)CC2=CCCCC2)C[C@H]1c1ccncc1 -0.277%
O=C(Cn1c(=O)oc2ccccc21)N1CCCC(Cc2noc(-c3ccccc3)n2)C1 (configuration not stated) -5.97%
CC1Oc2ccc(NC(=O)CC(C)(C)C)cc2CN(CCc2ccccc2)C1=O (configuration not stated) -15.3%
Cc1nc([C@H]2CCN(Cc3cccc(OC(F)(F)F)c3)C[C@H]2NC(=O)C2CC2)n[nH]1 20.6%
COc1ccccc1-c1ccc(C(=O)N2CCC(N[S+](=O)([O-])c3ccccc3)CC2)cc1 4.17%
Cc1noc(C)c1-c1cc2cc(CN(C)C)oc2c(N2CCOCC2)n1 4.61% [at 57.5 µM]
CCCn1c(C)cnc1CCNC(=O)CC1CCN(C(C)=O)CC1 15.7%
Cc1cccc(C(=O)N2CCC(c3nc(C4CCOCC4)no3)C2)c1 (configuration not stated) -8.94%
CN1CCC2(CCC1=O)CN(C(=O)CCOc1ccccc1)CCN2C (configuration not stated) 7.81%
CCc1nc(-c2c3n(c(=O)n(CC(=O)NC4CCCC4)c2=O)CCCCC3)no1 -0.651%
CC(=O)c1c(C)nn(CCC(=O)N2CCC3(CC2)[C@H](O)C[C@@H]3O)c1C -2.52%
COc1ccc(-c2cn3cc(C(=O)N4CCCCC4)nc3c(=O)n2CC2CC2)cc1 11.3%
CN(C)[C@@H]1CN(Cc2ccccn2)CC[C@@H]1CO -4.69%
O=C1CC2CCN(C(=O)C3CCCCC3)CC2CCN1 (configuration not stated) -1.99% [at 57.5 µM]
Cc1ccc(C(CC(=O)N2CCCCC2)c2cn(C)c3ccccc23)cc1 (configuration not stated) 13.4%
O=C1CCC2(CCCN(c3ncccc3F)C2)CN1Cc1ccncc1 (configuration not stated) 0.99%
COc1ccc(C(=O)N2CCC(Cn3c(C)cnc3C3CCC3)CC2)c(OC)c1 0.471%
CC(C)c1nccn1Cc1cc(C(=O)N(C)Cc2ccccc2Cl)n[nH]1 0.0528%
O=C(c1cccc(-c2ccccn2)c1)N1CCN([S+](=O)([O-])c2ccccc2)CC1 2.81%
C[S+](=O)([O-])c1ccc(-c2nnc3ccc(C(=O)NC4CCCCC4)cn23)cc1 -5.27%
CCn1c(C)ccc(C(=O)N2CCc3[nH]nc(-c4ccccc4F)c3C2)c1=O 0.437%
COc1ccc(CCNC(=O)c2ccc3nnc(C4CC4)n3c2)cc1 2.78% [at 57.5 µM]
CC(C)(C)C(=O)N[C@H]1C[C@@H](Cc2cc(CN3CCN(c4ccccc4)CC3)on2)C1(C)C 2.29%
COc1ccc(-c2ccccc2NC(=O)C2CCCN2C(=O)c2cccnc2)cc1 (configuration not stated) 1.57%
COc1ccc(C(=O)N2CCC3(CC2)CC(N(Cc2ccccc2)C2CC2)CCO3)cn1 (configuration not stated) 1.49%
Cc1cc2nc3n(c(=O)c2n1CC(=O)NCCc1ccc(Cl)cc1)CCCC3 10.3%
C=CCNC(=O)N[C@H]1CO[C@H]2[C@@H]1OC[C@@H]2Nc1nccc(C(C)(C)C)n1 8.34% [at 57.5 µM]
CN(c1ccccc1)c1cc(=O)c2ccnc(NCC3CCOCC3)c2o1 15.4% [at 57.5 µM]
O=C(CCc1cc2n(n1)CCNC2)NCc1nc2ccc(Cl)cc2[nH]1 -5.97%
O=C(CC1CCCC1)N1CC(c2nc(CCOCc3ccccc3)no2)C1 16.8%
C[C@H](C(=O)N1CCSCC1)C1CC[C@@]2(C)Cc3sc(Nc4c(Cl)cccc4Cl)nc3[C@@H](C)[C@@H]2[C@H]1O (some centres not stated) 1.59%
O=C(N[C@@H]1C[C@H](Cn2cc(CN3CCS(=O)(=O)CC3)nn2)[C@@H](O)[C@H]1O)C1CCCC1 18.6%
Cc1ccccc1COC1CN(C(=O)C2CCN(C(=O)C3CC3)CC2)C1 -4.72%
CCOc1ccc(-c2cc3c(=O)n(CCNC(=O)c4ccoc4)ccn3n2)cc1 2.68%
CN1CCN(C)c2cnc(-c3cnn(Cc4ccccc4)c3)cc2C1 2.76% [at 57.5 µM]
COc1c(F)cccc1CN1CCOc2cc([S+](N)(=O)[O-])ccc2C1 1.62% [at 57.5 µM]
O=C(Cc1ccccc1F)Nc1cnc(-c2cccnc2)nc1 7.78%
c1cc2c(cc1N1CCC(N3CCC4(CCNCC4)C3)CC1)OCO2 10.7%
CCCCS(=O)(=O)N1CCCC2(C1)Nc1cccnc1NC2=NCc1ccccc1 (configuration not stated) -0.477%
O=C(NC1CCCCC1)[C@@H]1Cc2nc[nH]c2CN1Cc1ccc(Cl)cc1 10.4% [at 57.5 µM]
COc1ccc(C(C(=O)O)N2CCN(Cc3csc(C)n3)CC2)cc1C (configuration not stated) -1.02%
CCN1c2cc(C(=O)Nc3cccc(C(F)(F)F)c3)ccc2C(=O)N2CCCCC21 (configuration not stated) 11%
CC(=O)N1CCC(N2C[C@H](O)C[C@H]2c2nc(CS(=O)(=O)c3ccc(C)cc3)no2)CC1 -0.0052%
Cc1ccc2c(c1)N(CCCC(=O)N1CCC(C)(c3noc(C4CC4)n3)CC1)C(=O)CO2 32.8%
O=C(O)c1cccc(CC2CCN(C(=O)CCC(F)(F)F)C2)c1 (configuration not stated) 1.67%
O=C(N[C@@H]1CN(C(=O)Nc2ccccc2)CCC[C@H]1O)c1ccc(O)cc1 4.87% [at 57.5 µM]
COCC(=O)N1CC(C(=O)O)C2(CCOCC2)C1 (configuration not stated) 47.6%
CC(C)[S+](=O)([O-])N1CCN(c2ccc(Cl)nn2)C(=O)C1 6.34%
O=C(Cc1ccccn1)NCCNC(=O)c1ccc(-c2cccc(C(F)(F)F)c2)cc1 8.41%
CN(Cc1ccc2nonc2c1)Cc1cn(-c2ccccc2)nn1 1.06%
CCNC(=O)[C@@H]1C[C@H](NC(=O)c2oc(C)nc2C)CN1Cc1nc(C)no1 -13.4%
COc1cccc(CN2C[C@]34C=C[C@H](O3)C(C(=O)N3CCCCC3)C4C2=O)c1 (some centres not stated) 0.0273%
CN(C)c1ccc(-c2noc([C@@H]3CCCN3C3CCOCC3)n2)cn1 16% [at 57.5 µM]
CCCc1nc(C(=O)N[C@H]2COC[C@H]2Cc2cc(C)no2)cs1 0.368%
c1ccc2[nH]c([C@H]3CCN(CC4CCCCC4)C3)nc2c1 1.62% [at 77.1 µM]
COc1ccc(C(=O)N2CCOCCNC(=O)CC2)c(OC)c1 0.393%
CCOCCCNC(=O)N1CC2CN(CCOC)CC(C1)O2 -0.804%
COc1ccc(C[C@H](NC(=O)C2=C[C@@H](Oc3cc(F)ccc3Br)[C@H](O)[C@H](O)C2)C(N)=O)cc1 1.94%
CN(C)C[C@@H]1CN(c2ncccn2)C[C@H]1NC(=O)c1ccc(Cl)cc1 3.35%
OC1(CN2CCCCC2)CCN(Cc2ccc(C(F)(F)F)cc2F)C1 (configuration not stated) -0.69%
COCCn1ncc(N2CCC(C(=O)NCCCN3CCC(N4CCCCC4)CC3)C2)cc1=O (configuration not stated) 1.59%
CC(C)N1CCN(C(=O)C2N(C(C)C)C(=O)C23CCCC3)CC1 (configuration not stated) -15.5%
O=C(NCc1cccnc1)[C@@H]1C[C@@H](O)CN1C1CCN(C(=O)COc2ccccc2)CC1 -6.73%
CN1CC[C@H]2CN(C(=O)c3scc4c3OCCO4)C[C@@]2(C(=O)O)C1 41.3%
COc1ccc(CC(=O)NC2CCN(c3nc4ncccc4o3)C2)cc1 (configuration not stated) 83.9% [at 57.5 µM]
CC(=O)N1CCC(N2CC3(C2)C(=O)N(CCCN2CCCC2=O)C(=O)[C@@H]2C[C@@H](O)CN23)CC1 -1.32%
CC1CCN(C(=O)CC2Sc3ncccc3N(C)C2=O)CC1 (configuration not stated) 0.879%
COc1cc(OC)cc(OCc2nnc(C(=O)N3CCC[C@@H]3C)n2-c2ccccc2)c1 22.1% [at 57.5 µM]
CC(C)CN1CC2(C1)C(=O)N(CCCN1CCCC1=O)C(=O)[C@@H]1C[C@@H](O)CN12 4.85% [at 57.5 µM]
CN(Cc1ccc2c(c1)OCO2)C(=O)C1(C)CCOCC1 5.41% [at 57.5 µM]
CN(CCCc1nccn1C)C(=O)[C@H]1CCC[C@H](O)C1 8.87%
CN(CC1CCCN(CCc2cccc(C(F)(F)F)c2)C1)C(=O)c1ccc2[nH]ccc2c1 (configuration not stated) 0.225%
CCCS(=O)(=O)N1CCCCC1c1nc(-c2cnccn2)n[nH]1 (configuration not stated) 20.5%
Cc1cccc2ncc(C(=O)N3CCC4(CCNC(=O)CC4)CC3)c(=O)n12 0.662%
C[C@H]1[C@@H]2[C@@H](O)C([C@H](C)C(=O)NC3CCCCC3)CC[C@@]2(C)CC[C@@H]1NC(=O)C1CC1 (some centres not stated) 6.15% [at 57.5 µM]
COc1ccc(O)c(CN2CCCC(Nc3ccc(F)cc3)C2)c1 (configuration not stated) -0.0764%
Cc1nc(C)c(C(=O)N2CCc3onc(-c4cccc(F)c4)c3C2)s1 -9.17%
CC1(C)N=C(c2ccccc2)C(=O)N1CC(=O)N1CCN(c2ccccc2F)CC1 9.7%
Cn1nc(-c2cccc(F)c2)c(N2CCCCC2)c1NC(=O)Nc1ccccc1 1.89%

Quoted at random: 5 entries already listed.
Activity % (negative = inhibition), inactive:
CN1CCc2[nH]cnc2C12CCN(C(=O)Cc1ccc(F)cc1Cl)CC2 -2.31%
Cc1ccc(C(CC(=O)N2CCCCC2)c2cn(C)c3ccccc23)cc1 (configuration not stated) 13.4%
CC1Oc2ccc(NC(=O)CC(C)(C)C)cc2CN(CCc2ccccc2)C1=O (configuration not stated) -15.3%
O=C(Cc1ccccc1F)Nc1cnc(-c2cccnc2)nc1 7.78%
COC[C@@H]1CN(C(=O)CC2=CCCCC2)C[C@H]1c1ccncc1 -0.277%
